From the supplement of paper PMC12819154, “High-throughput peptide-centric local stability assay extends protein–ligand identification to membrane proteins, tissues and bacteria” (Nature Structural & Molecular Biology, 2025)
Some of the results follow. Small differences around the control level are noise.

By UniProt entry, the sequences of proteins in these tests, tags left out. Where a name states a change or a piece, a line headed by the entry shows the natural chain unless it says otherwise.
UniProt P07225: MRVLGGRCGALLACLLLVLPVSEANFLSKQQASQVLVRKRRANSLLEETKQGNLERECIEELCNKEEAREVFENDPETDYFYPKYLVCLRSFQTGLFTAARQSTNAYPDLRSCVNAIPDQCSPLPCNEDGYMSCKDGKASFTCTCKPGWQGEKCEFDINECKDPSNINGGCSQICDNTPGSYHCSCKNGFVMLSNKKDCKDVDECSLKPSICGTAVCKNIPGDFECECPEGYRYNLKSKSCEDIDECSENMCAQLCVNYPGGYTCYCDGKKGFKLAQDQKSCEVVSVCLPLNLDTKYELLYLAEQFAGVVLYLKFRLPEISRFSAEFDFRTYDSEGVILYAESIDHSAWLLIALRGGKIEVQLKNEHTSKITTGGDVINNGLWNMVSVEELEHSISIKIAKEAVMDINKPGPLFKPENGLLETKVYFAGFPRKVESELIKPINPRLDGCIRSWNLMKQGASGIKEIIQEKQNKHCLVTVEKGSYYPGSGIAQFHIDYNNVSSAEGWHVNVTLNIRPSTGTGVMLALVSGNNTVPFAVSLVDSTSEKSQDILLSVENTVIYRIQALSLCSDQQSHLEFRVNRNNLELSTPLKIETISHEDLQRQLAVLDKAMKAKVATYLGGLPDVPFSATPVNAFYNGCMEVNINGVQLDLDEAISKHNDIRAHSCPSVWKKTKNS
UniProt P10827: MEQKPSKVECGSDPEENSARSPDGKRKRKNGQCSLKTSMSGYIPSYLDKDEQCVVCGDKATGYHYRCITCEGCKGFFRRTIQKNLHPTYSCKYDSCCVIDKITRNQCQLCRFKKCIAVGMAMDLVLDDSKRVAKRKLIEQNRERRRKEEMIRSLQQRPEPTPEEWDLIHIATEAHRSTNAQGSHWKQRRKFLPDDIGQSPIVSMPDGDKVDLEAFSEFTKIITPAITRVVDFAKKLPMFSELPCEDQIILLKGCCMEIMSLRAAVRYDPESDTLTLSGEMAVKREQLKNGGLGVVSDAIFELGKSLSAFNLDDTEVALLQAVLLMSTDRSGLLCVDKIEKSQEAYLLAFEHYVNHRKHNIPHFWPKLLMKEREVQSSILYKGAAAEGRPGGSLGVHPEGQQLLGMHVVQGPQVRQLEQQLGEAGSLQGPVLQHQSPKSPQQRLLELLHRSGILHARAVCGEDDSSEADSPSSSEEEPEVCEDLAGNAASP
UniProt P13796: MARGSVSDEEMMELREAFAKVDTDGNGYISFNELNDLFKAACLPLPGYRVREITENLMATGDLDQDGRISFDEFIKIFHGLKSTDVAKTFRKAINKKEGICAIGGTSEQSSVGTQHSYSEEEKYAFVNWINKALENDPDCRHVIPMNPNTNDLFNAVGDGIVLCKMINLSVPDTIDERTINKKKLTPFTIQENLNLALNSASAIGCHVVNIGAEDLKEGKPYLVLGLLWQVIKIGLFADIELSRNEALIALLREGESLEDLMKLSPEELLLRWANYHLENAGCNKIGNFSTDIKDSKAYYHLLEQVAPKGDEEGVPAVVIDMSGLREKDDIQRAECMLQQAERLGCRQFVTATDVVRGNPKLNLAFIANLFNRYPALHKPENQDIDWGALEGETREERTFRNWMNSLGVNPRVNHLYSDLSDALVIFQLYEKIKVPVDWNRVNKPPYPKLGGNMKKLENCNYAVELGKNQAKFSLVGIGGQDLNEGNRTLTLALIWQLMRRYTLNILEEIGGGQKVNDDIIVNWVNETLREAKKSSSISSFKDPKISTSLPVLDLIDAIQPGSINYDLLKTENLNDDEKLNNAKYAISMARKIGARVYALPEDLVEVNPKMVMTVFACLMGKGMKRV
UniProt P0C7P4: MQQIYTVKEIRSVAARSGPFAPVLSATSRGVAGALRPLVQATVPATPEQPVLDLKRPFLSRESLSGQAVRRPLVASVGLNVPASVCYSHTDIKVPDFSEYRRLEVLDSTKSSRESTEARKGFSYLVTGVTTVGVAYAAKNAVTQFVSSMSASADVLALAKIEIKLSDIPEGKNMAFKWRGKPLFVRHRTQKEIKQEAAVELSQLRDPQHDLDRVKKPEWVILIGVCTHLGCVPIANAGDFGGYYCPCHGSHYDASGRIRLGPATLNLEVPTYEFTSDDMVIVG
UniProt P11177, whole entry: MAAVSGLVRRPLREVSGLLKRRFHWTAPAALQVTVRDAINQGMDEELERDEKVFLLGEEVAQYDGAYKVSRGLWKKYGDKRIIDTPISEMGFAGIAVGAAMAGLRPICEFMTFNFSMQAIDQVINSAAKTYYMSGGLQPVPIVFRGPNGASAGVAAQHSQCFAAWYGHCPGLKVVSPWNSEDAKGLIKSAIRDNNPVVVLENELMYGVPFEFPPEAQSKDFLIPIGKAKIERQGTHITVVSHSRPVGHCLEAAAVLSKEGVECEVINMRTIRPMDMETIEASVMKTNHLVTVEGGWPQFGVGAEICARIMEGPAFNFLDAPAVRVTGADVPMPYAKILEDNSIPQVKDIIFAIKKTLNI
UniProt P04792, whole entry: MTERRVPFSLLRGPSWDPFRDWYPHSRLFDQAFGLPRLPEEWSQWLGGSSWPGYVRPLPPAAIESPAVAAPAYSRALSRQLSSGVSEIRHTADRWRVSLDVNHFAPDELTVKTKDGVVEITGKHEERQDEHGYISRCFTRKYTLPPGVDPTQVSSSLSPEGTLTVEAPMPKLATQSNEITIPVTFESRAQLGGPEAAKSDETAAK
UniProt P09651: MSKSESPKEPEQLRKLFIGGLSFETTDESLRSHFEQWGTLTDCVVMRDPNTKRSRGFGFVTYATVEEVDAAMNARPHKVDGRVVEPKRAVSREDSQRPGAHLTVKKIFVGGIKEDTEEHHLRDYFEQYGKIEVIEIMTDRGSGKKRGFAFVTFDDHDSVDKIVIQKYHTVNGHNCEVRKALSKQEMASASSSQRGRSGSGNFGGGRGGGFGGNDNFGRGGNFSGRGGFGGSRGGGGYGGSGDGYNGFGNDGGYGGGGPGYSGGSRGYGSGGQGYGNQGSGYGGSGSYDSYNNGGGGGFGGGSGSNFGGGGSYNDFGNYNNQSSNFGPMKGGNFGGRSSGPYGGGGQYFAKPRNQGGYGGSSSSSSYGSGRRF
UniProt P07814: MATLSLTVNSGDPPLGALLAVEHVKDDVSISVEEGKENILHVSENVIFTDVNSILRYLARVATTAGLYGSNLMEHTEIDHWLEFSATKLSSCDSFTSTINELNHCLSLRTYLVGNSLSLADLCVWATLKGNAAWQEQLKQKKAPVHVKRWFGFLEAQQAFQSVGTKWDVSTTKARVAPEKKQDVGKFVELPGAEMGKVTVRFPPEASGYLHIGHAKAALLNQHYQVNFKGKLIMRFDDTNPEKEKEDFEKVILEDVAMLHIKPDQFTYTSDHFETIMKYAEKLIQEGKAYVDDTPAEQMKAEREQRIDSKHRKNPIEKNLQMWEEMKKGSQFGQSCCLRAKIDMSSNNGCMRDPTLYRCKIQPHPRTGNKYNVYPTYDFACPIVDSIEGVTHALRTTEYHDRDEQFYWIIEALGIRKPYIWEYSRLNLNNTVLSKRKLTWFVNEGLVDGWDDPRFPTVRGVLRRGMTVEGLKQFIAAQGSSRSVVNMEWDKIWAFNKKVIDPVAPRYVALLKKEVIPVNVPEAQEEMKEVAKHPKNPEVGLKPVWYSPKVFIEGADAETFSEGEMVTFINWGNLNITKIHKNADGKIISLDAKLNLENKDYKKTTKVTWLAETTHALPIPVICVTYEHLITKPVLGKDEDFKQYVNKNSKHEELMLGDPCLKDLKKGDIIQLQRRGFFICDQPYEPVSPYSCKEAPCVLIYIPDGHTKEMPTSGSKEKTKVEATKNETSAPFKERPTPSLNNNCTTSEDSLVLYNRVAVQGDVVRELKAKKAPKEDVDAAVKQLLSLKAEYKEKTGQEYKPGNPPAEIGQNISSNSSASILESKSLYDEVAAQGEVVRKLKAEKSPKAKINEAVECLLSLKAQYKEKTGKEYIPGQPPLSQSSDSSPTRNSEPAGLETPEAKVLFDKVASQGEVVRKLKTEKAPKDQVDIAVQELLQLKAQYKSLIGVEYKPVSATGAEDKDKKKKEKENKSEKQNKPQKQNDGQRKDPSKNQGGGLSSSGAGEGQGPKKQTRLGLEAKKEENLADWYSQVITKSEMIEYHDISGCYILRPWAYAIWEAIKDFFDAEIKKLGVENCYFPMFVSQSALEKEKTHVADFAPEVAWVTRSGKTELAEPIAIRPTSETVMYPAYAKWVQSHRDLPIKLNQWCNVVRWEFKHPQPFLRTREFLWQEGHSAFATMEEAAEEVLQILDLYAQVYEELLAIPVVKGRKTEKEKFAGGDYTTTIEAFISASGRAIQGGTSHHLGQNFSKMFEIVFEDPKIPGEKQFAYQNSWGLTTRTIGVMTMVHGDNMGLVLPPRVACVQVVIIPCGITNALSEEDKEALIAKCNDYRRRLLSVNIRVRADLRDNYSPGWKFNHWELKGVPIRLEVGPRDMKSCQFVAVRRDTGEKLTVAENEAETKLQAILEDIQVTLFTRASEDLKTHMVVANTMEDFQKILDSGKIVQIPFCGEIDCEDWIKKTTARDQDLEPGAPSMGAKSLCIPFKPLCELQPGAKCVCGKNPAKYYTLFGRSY
UniProt P09493, whole entry: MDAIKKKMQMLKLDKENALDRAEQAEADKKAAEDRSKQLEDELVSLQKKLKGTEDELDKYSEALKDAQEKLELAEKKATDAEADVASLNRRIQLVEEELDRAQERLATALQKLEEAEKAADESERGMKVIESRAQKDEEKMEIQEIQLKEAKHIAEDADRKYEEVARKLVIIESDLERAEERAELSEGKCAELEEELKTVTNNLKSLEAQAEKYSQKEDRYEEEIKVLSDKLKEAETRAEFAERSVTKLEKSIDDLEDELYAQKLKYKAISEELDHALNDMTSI
UniProt P07919: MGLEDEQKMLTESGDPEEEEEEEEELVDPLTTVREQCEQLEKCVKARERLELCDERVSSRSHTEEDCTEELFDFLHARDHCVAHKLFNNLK
UniProt P07738: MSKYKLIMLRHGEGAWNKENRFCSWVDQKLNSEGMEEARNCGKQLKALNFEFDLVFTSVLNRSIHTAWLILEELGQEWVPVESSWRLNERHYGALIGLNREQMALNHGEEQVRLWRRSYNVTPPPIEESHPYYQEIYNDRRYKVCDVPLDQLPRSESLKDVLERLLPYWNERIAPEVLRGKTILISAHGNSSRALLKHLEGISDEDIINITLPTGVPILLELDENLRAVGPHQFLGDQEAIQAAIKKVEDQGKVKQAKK

The targets below were run with Cc1nc(Nc2ncc(C(=O)Nc3c(C)cccc3Cl)s2)cc(N2CCN(CCO)CC2)n1 [dasatinib] (assay: log2 fold change of tryptic peptide abundance, ligand vs vehicle (limited proteolysis) (log2 ratio); higher = more trypsin-susceptible (destabilized)). Conditions: ligand concentration: 5 uM; sample: K562 cleared lysate.
“PROS1 (peptide sequence: SFQTGLFTAAR, peptide start residue: 91) (UniProt P07225)” was tested, and the log2 fold change was 0.609.
In the case of “UniProt P10827 (peptide sequence: SQEAYLLAFEHYVNHR, peptide start residue: 341)”, the log2 fold change is reported as 0.213.
For “LCP1 (peptide sequence: AACLPLPGYR, peptide start residue: 40) (UniProt P13796)”, the log2 fold change was 0.148.
With “UniProt P0C7P4 (peptide sequence: DPQHDLDR, peptide start residue: 197)” the log2 fold change was -0.0411.
“PDHB (peptide sequence: VTGADVPMPYAK, peptide start residue: 325) (UniProt P11177)” showed a log2 fold change of 0.154.
With “HSPB1 (peptide sequence: LFDQAFGLPR, peptide start residue: 28) (UniProt P04792)” the log2 fold change was -2.4.
“HNRNPA1 (peptide sequence: SESPKEPEQLR, peptide start residue: 4) (UniProt P09651)” showed a log2 fold change of 0.131.
“EPRS (peptide sequence: AKIDMSSNNGCMRDPTLYR, peptide start residue: 340) (UniProt P07814)” gave a log2 fold change of 0.165.
“TPM1 (peptide sequence: DEEKMEIQEIQLK, peptide start residue: 137) (UniProt P09493)” gave a log2 fold change of 0.265.
“UQCRH (peptide sequence: LELCDER, peptide start residue: 50) (UniProt P07919)” was tested, and the log2 fold change was 0.0311.
In the case of “BPGM (peptide sequence: KVEDQGKVK, peptide start residue: 247) (UniProt P07738)”, the log2 fold change is reported as 0.215.
